Results reported in PMC10058529.
These are yes or no findings as the source states them, for the method shown. In cells and extracts the contact can be indirect. Some binding calls cover weakened binding; strength is not graded here.

Sequences of proteins named here, by UniProt entry; tags and fusion partners are left off.
UniProt P56696: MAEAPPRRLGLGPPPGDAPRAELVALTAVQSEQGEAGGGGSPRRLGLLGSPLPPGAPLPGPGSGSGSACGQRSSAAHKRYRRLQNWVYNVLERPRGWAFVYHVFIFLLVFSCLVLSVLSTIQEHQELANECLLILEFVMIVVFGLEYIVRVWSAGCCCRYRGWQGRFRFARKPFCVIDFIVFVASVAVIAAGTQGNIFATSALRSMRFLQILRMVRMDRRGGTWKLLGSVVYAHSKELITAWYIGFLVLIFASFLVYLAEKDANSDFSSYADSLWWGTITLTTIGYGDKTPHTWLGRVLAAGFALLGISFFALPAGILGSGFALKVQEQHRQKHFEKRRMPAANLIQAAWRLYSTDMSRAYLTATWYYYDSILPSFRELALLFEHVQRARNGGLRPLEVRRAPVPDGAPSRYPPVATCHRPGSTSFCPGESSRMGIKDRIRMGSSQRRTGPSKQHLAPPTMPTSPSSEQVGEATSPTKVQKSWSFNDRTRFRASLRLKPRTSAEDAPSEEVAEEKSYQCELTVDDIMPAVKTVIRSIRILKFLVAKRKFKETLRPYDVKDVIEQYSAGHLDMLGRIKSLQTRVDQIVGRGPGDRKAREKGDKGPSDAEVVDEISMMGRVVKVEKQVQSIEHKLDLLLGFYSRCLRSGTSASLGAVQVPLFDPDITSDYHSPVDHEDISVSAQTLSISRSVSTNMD
UniProt P08238: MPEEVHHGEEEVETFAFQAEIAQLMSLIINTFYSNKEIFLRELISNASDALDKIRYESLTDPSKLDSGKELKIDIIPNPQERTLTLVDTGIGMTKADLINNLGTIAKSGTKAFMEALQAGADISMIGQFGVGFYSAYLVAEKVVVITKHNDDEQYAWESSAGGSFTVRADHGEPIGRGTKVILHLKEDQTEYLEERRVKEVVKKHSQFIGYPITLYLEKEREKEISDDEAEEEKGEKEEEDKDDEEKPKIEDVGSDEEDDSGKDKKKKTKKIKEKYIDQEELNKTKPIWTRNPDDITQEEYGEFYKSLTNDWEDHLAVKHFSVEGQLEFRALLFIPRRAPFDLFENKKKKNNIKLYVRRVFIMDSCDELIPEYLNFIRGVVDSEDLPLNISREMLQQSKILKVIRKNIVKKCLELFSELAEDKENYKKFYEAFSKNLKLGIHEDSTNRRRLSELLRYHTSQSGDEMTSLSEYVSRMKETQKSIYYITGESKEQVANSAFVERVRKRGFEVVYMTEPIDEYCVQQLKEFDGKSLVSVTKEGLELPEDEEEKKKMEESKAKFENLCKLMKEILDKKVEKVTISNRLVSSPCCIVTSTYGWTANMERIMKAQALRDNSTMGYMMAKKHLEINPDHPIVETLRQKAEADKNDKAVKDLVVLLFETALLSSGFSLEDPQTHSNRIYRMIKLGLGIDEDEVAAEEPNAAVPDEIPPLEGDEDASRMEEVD
UniProt Q13547: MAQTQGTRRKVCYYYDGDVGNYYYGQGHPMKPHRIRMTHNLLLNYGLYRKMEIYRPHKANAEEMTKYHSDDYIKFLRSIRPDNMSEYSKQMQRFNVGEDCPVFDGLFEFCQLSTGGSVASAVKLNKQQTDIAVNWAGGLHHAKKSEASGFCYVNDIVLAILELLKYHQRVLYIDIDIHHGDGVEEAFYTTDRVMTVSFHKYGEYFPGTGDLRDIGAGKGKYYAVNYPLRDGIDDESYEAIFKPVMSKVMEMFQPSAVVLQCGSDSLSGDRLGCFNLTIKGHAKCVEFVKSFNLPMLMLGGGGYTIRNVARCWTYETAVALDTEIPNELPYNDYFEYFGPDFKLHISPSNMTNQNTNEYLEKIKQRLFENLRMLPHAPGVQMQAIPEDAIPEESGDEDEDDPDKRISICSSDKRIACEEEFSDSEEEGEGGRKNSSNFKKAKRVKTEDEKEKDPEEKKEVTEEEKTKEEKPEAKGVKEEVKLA

Key:
[1] = target: potassium voltage-gated channel subfamily Q member 4 (KCNQ4), expressed from pcDNA3.1-KCNQ4-EGFP-8xHis (UniProt P56696); test: co-IP; HEK293T cells co-transfected with pcDNA3.1-KCNQ4-EGFP-8xHis and pcDNA3-HA-HSP90β, with or without VPA treatment; NP40 lysis buffer; KCNQ4 precipitated with anti-GFP antibody and protein A/G PLUS-Agarose, 4 °C for 24 h; HSP90β detected with anti-HA by Western blot
[2] = target: potassium voltage-gated channel subfamily Q member 4 (KCNQ4), expressed from pcDNA3.1-KCNQ4-EGFP-8xHis (UniProt P56696); test: co-IP; HEK293T cells transfected with KCNQ4-EGFP-8xHis, HA-HSP90β and 3myc-HDAC1; NP40 lysis buffer; protein A/G PLUS-Agarose; Western blot for HA, His and myc; the precipitating antibody is not told for this panel

Substance	binding [1]	binding [2]
HSP90β, expressed from pcDNA3-HA-HSP90β (from UniProt P08238 1-724)	binds	binds
HDAC1, expressed from pCs2+-3myc-HDAC1 (from UniProt Q13547 1-482) (enzyme)		binds
